Data on 1 molecule can be found in article PMC11066007, “CORVET-specific subunit levels determine the balance between HOPS/CORVET endosomal tethering complexes” (Scientific Reports, 2024).

In this assay the target is T1, Tgfbrap1-FLAG (human), Q8WUH2.
T1 chain: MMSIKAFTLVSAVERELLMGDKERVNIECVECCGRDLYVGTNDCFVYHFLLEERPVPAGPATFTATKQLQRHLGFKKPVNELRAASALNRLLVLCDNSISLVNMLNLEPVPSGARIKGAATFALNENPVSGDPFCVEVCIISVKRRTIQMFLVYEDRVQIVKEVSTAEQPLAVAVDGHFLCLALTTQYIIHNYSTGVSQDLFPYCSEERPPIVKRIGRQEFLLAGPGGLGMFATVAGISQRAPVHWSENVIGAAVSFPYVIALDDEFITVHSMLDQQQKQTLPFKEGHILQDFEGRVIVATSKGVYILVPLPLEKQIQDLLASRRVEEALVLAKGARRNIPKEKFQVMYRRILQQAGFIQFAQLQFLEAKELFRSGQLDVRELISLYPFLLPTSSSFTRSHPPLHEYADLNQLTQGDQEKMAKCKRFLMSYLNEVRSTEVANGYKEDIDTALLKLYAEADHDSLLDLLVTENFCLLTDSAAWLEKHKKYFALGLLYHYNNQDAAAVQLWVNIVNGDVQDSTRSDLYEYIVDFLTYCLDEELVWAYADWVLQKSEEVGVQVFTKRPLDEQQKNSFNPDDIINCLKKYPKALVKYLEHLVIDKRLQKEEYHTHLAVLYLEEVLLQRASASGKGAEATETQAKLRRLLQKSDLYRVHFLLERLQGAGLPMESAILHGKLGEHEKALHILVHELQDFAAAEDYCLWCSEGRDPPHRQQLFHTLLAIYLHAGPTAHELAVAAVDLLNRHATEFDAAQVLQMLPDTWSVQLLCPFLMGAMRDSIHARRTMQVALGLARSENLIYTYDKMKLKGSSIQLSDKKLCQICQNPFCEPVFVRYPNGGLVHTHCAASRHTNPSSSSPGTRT
Nature of the assay: co-IP; anti-FLAG beads on lysates of HEK293 cells overexpressing a FLAG-tagged subunit together with untagged VPS8 or VPS41-HA; eluates analysed by western blot; lysis buffer 50 mM TRIS-HCl pH 7.5, 150 mM NaCl, 1% Triton X-100, 5 mM EDTA; 1.5 h at 4 °C. The conditions noted are these: remark: other sources report otherwise. For orientation: A western blot detects proteins with antibodies after separation by electrophoresis.

These are yes or no findings as the source states them, for the method shown. Binding seen in cells or lysates may run through a third protein. Where a sequence is shown, tags or fusion partners need not be part of it.

B1: VPS41-HA, P49754 1-854 (protein)
chain: MAEAEEQETGSLEESTDESEEEESEEEPKLKYERLSNGVTEILQKDAASCMTVHDKFLALGTHYGKVYLLDVQGNITQKFDVSPVKINQISLDESGEHMGVCSEDGKVQVFGLYSGEEFHETFDCPIKIIAVHPHFVRSSCKQFVTGGKKLLLFERSWMNRWKSAVLHEGEGNIRSVKWRGHLIAWANNMGVKIFDIISKQRITNVPRDDISLRPDMYPCSLCWKDNVTLIIGWGTSVKVCSVKERHASEMRDLPSRYVEIVSQFETEFYISGLAPLCDQLVVLSYVKEISEKTEREYCARPRLDIIQPLSETCEEISSDALTVRGFQENECRDYHLEYSEGESLFYIVSPRDVVVAKERDQDDHIDWLLEKKKYEEALMAAEISQKNIKRHKILDIGLAYINHLVERGDYDIAARKCQKILGKNAALWEYEVYKFKEIGQLKAISPYLPRGDPVLKPLIYEMILHEFLESDYEGFATLIREWPGDLYNNSVIVQAVRDHLKKDSQNKTLLKTLAELYTYDKNYGNALEIYLTLRHKDVFQLIHKHNLFSSIKDKIVLLMDFDSEKAVDMLLDNEDKISIKKVVEELEDRPELQHVYLHKLFKRDHHKGQRYHEKQISLYAEYDRPNLLPFLRDSTHCPLEKALEICQQRNFVEETVYLLSRMGNSRSALKMIMEELHDVDKAIEFAKEQDDGELWEDLILYSIDKPPFITGLLNNIGTHVDPILLIHRIKEGMEIPNLRDSLVKILQDYNLQILLREGCKKILVADSLSLLKKMHRTQMKGVLVDEENICESCLSPILPSDAAKPFSVVVFHCRHMFHKECLPMPSMNSAAQFCNICSAKNRGPGSAILEMKK
For the molecule B1, the binding entry is given as “no binding”.
